This passage reports binding results from US20050272099A1.

The chains behind the UniProt entries cited, without tags or fusion partners. Where a name states a change or a piece, a line headed by the entry shows the natural chain unless it says otherwise.
UniProt P10275: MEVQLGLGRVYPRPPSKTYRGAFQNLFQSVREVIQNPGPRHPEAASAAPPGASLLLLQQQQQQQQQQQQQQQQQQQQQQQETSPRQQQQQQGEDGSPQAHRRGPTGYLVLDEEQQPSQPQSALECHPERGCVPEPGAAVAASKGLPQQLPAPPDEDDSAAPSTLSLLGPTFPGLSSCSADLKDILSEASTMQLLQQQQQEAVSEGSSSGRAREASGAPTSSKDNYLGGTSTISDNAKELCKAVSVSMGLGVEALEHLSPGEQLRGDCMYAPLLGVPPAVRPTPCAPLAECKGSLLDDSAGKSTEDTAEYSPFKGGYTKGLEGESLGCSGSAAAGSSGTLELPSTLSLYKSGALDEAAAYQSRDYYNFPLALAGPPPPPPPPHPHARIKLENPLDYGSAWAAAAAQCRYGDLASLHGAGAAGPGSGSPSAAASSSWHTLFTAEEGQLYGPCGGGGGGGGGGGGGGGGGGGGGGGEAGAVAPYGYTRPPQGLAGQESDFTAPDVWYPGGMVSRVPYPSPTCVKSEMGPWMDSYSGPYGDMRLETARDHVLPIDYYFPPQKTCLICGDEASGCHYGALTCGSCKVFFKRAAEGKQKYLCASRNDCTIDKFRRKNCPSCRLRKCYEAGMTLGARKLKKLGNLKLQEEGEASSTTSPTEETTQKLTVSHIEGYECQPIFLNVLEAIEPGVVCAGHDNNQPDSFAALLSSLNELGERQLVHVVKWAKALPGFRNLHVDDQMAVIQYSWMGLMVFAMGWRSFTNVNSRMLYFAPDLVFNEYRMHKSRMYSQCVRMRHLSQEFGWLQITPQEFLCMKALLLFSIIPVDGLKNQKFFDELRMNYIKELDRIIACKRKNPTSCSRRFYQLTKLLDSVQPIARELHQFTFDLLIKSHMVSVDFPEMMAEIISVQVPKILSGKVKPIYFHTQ
UniProt Q58WW2: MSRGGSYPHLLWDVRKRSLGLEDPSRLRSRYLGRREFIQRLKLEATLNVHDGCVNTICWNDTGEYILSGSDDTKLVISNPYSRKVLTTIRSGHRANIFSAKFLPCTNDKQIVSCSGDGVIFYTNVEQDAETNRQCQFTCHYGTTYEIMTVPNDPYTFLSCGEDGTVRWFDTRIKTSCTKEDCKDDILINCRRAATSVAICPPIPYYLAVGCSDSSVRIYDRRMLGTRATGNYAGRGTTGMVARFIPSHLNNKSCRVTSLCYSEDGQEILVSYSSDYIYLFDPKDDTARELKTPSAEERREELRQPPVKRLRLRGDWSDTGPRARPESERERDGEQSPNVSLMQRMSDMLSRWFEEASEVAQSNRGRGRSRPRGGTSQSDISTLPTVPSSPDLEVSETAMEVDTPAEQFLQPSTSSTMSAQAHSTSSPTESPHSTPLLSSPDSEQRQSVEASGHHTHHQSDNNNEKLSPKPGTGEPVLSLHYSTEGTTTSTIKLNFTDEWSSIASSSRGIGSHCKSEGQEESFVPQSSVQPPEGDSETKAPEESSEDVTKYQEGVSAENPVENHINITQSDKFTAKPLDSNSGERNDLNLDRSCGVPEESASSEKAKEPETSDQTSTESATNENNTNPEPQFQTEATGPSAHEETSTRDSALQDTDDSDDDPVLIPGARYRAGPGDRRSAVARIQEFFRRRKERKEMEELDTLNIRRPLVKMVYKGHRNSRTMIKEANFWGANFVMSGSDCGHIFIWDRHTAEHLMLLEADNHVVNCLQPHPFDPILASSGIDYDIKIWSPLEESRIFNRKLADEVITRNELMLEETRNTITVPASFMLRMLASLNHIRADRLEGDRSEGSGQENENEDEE

The assay has as its target androgen receptor (UniProt P10275). In words: reciprocal co-immunoprecipitation from transfected COS7 cell lysate (AR, HA or Xpress antibody), 35S label, autoradiography.

Results are given in words; binding and its absence hold for the method and conditions named. In cells and extracts the contact can be indirect. Some entries that bind do so weakly or less than the wild type.

For the substance “ARCAP-HA or ARCAP-Xpress epitope fusion protein (from UniProt Q58WW2 1-860)”, the binding result is “binds”.
